# Experimental data taken from the supplement of paper PMC9135407.
# Values joined by “and” are separate entries in the source; they are usually repeats but may differ in a detail not shown here. Equal values may be shown once. Where a name gives a salt, the structure may show the parent alone. ± gives the standard deviation of the averaged measurements. This is one part of the list. Plates or batches differ in their baseline, so values are only roughly comparable.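 Culture-activated primary human stellate myofibroblasts, where regained lipid droplets signal inactivation. Value: share of Hoechst-counted cells above a per-plate Bodipy cutoff, in duplicate wells, with DMSO negative and nortriptyline positive controls on each plate. Hits: a control-normalized score above the plate's top-tenth-percentile nortriptyline wells, or one of a plate's three best wells. Final well concentrations are not given.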
# Test system: primary human hepatic stellate cells (donor 1)
# Experiment: percent Bodipy-positive cells; higher = more lipid droplet accumulation
# Conditions: 48 h
# [1] = library stock concentration: 10 mM
# [2] = library stock concentration: 1 mM
# [3] = library stock concentration: 3.33 mM
# [4] = library stock concentration: 80 uM
# [5] = library stock concentration: 400 uM
# [6] = library stock concentration: 2 mM
structure (smiles),measurement,setting,value
CC1COc2c(N3CCN(C)CC3)c(F)cc3c(=O)c(C(=O)O)cn1c23 (stereo not given) [Ofloxacin],percent Bodipy-positive cells,,23.6 ± 2.6%
same,percent Bodipy-positive cells,[1],16.4% and 25.1%
CCCCC[C@@H](O)/C=C/[C@@H]1[C@H](C/C=C\CCCC(=O)O)[C@@H](O)C[C@H]1O [8-iso-15(R)-Prostaglandin F2.alpha.],percent Bodipy-positive cells,[2],19.1 ± 9.4%
CCCCC/C=C\C/C=C\C/C=C\C/C=C\CCCCNC(=O)c1ccc(O)cc1,percent Bodipy-positive cells,[2],7.27 ± 3.8%
CN(C)CCCCCCOc1ccc(-n2ccnc2)cc1,percent Bodipy-positive cells,[2],12.7% and 7.43%
CN1CCN(c2cc3c(cc2F)c(=O)c(C(=O)O)cn3-c2ccc(F)cc2)CC1,percent Bodipy-positive cells,[1],23.8 ± 7.5%
O=C(O)CCCC[C@@H]1SC[C@@H]2NC(=O)N[C@@H]21 [Biotin],percent Bodipy-positive cells,,21.5 ± 2.1%
same,percent Bodipy-positive cells,[1],12.7 ± 2.3%
O=C(O)CCCC[C@@H]1SC[C@@H]2NC(=O)N[C@@H]21 [Biotin (Vitamin B7)],percent Bodipy-positive cells,[3],10.9 ± 1.2%
same,percent Bodipy-positive cells,[1],28.9 ± 20%
CC(=O)O.N=C(N)N/N=C/c1c(Cl)cccc1Cl [Guanabenz acetate],percent Bodipy-positive cells,[1],91.86 ± 0.19%
CCOC(=O)Nc1ccc(NCc2ccc(F)cc2)nc1N [Flupirtine maleate],percent Bodipy-positive cells,[3],14.2 ± 1.9%
same,percent Bodipy-positive cells,[1],43.9% and 52.9%
COCC(=O)Nc1c(I)c(C(=O)NCC(O)CO)c(I)c(C(=O)N(C)CC(O)CO)c1I (stereo not given) [Iopromide],percent Bodipy-positive cells,,7.34 ± 2.2%
"C[C@@]1(O)CCOC(=O)C1 [Mevalonic-D, L acid lactone]",percent Bodipy-positive cells,,8.9 ± 0.58%
"Cn1nc2c3c(cccc31)C(=O)c1ccccc1-2 [JNK Inhibitor, Negative Control]",percent Bodipy-positive cells,[3],14.9 ± 4.2%
C[C@@]1(c2cc(-c3cncnc3)c(F)cc2F)CCSC(N)=N1,percent Bodipy-positive cells,[3],10.1 ± 2.6%
same,percent Bodipy-positive cells,[1],21.5 ± 7.2%
C[C@H]1Oc2cc(cnc2N)-c2c(nn(C)c2C#N)CN(C)C(=O)c2ccc(F)cc21,percent Bodipy-positive cells,[4],6.84 ± 3.3%
same,percent Bodipy-positive cells,[5],6.87 ± 2.3%
same,percent Bodipy-positive cells,[6],4.21 ± 0.93%
same,percent Bodipy-positive cells,[1],5.45 ± 2.3%
Cn1c(=O)c2c(ncn2CCO)n(C)c1=O [Etofylline],percent Bodipy-positive cells,,26.3 ± 6.1%
CCc1cnn2c(NCc3ccc[n+]([O-])c3)cc(N3CCCC[C@H]3CCO)nc12 [Dinaciclib],percent Bodipy-positive cells,[4],39.2 ± 5.8%
same,percent Bodipy-positive cells,[5],38.9 ± 9.2%
same,percent Bodipy-positive cells,[6],44 ± 2.4%
same,percent Bodipy-positive cells,[1],56.8 ± 2%
CCc1cnn2c(NCc3ccc[n+]([O-])c3)cc(N3CCCC[C@H]3CCO)nc12,percent Bodipy-positive cells,[3],55.1 ± 4.6%
same,percent Bodipy-positive cells,[1],62.3 ± 3.4%
O=C1NC(=O)[C@@H](c2cn3c4c(cccc24)CCC3)[C@@H]1c1c[nH]c2ccccc12 [Tivantinib],percent Bodipy-positive cells,[4],15.3 ± 3%
same,percent Bodipy-positive cells,[5],27.5 ± 7.5%
same,percent Bodipy-positive cells,[6],12.4 ± 1.6%
same,percent Bodipy-positive cells,[1],31.1 ± 5.4%
COC(C)(C)CCCC(C)C/C=C/C(C)=C/C(=O)O (stereo not given) [Methoprene acid],percent Bodipy-positive cells,[2],7.42 ± 6.7%
"Cl.OCCNCCCOc1cccc(Cl)c1Cl [2,3-DCPE hydrochloride]",percent Bodipy-positive cells,[1],70.388 ± 0.025%
CCCCCCCCCCCCCCSCC(=O)O [Tetradecylthioacetic acid],percent Bodipy-positive cells,[1],24.1 ± 3.6%
CCCn1cnc2c1c(=O)n(CCCCC(C)=O)c(=O)n2C [Propentofylline],percent Bodipy-positive cells,[1],19.6 ± 4.1%
CCCc1cc(C(=O)c2ccc(-c3ccccc3)cc2)ccc1OCCCN1CCCc2c(OC(C)(C)C(=O)O)cccc21,percent Bodipy-positive cells,[2],11.1 ± 0.22%
O=C(O)CN(CCN(CC(=O)O)CC(=O)O)CCN(CC(=O)O)CC(=O)O [Pentetic acid],percent Bodipy-positive cells,,8.5 ± 3.3%
same,percent Bodipy-positive cells,library stock concentration: 5.1 mM,91.9 ± 8.1%
O=C(O)CN(CCN(CC(=O)O)CC(=O)O)CCN(CC(=O)O)CC(=O)O [Diethylenetriaminepentaacetic acid],percent Bodipy-positive cells,[1],55.5 ± 3.2%
CC(C)(CO)Cc1cc(C(C)(C)C)c(O)c(C(C)(C)C)c1,percent Bodipy-positive cells,[1],15.5 ± 0.18%
C#CCN(C)CCCOc1ccc(Cl)cc1Cl,percent Bodipy-positive cells,[1],38.9 ± 2.1%
C#CCN(C)CCCOc1ccc(Cl)cc1Cl [Clorgyline hydrochloride],percent Bodipy-positive cells,,43.4 ± 17%
same,percent Bodipy-positive cells,[1],56.6 ± 8.3%
CCc1cc2c(c(CC)n1)CCC(=O)N2Cc1ccc(-c2ccccc2-c2nn[nH]n2)cc1 [ZD 7155 hydrochloride],percent Bodipy-positive cells,[1],6.64 ± 1%
"CC(C)NCC(O)c1cc(O)cc(O)c1 (stereo not given) [Metaproterenol sulfate, orciprenaline sulfate]",percent Bodipy-positive cells,,25.3 ± 5.7%
CC(C)NCC(O)c1cc(O)cc(O)c1 (stereo not given) [Metaproterenol],percent Bodipy-positive cells,library stock concentration: 9.5 mM,4.73 ± 0.26%
same,percent Bodipy-positive cells,[1],14.9% and 35.7%
CC(C)NCC(O)c1cc(O)cc(O)c1 (stereo not given) [Metaproterenol hemisulfate],percent Bodipy-positive cells,[1],47.5 ± 20%
CC(C(=O)Nc1cccc(/N=C/c2c(O)ccc3ccccc23)c1)c1ccccc1 (stereo not given) [Salermide],percent Bodipy-positive cells,[2],13 ± 5.2%
"CC(=O)/C(C)=N/O [2,3-Butanedione monoxime]",percent Bodipy-positive cells,[1],34.2 ± 1.1%
COCC(=O)O[C@]1(CCN(C)CCCc2nc3ccccc3[nH]2)CCc2cc(F)ccc2[C@@H]1C(C)C [Mibefradil dihydrochloride],percent Bodipy-positive cells,[1],98.3% and 97.7%
O=C(O)CCCCC1CCSS1 (stereo not drawn) [(?)-alpha-Lipoic Acid],percent Bodipy-positive cells,[1],17.1 ± 0.98%
O=C(O)C(S)=Cc1c[nH]c2ccc(F)cc12,percent Bodipy-positive cells,[3],31.4 ± 14%
same,percent Bodipy-positive cells,[1],21.7 ± 6.8%
COc1ccc2[nH]c(C(=O)c3ccccc3)cc2c1,percent Bodipy-positive cells,[1],37.6 ± 1.9%
O=C(/C=C/C=C/c1ccc2c(c1)OCO2)N1CCCCC1 [Piperine],percent Bodipy-positive cells,,36.2 ± 1.8%
same,percent Bodipy-positive cells,[3],10.2 ± 0.47%
same,percent Bodipy-positive cells,library stock concentration: 7 mM,17.8 ± 3.4%
same,percent Bodipy-positive cells,[1],17.4% and 21.9%
O=c1c2ccccc2nc2n1CCc1c-2[nH]c2ccccc12 [Rutaecarpine],percent Bodipy-positive cells,[3],12.5 ± 5%
same,percent Bodipy-positive cells,[1],62.5 ± 9.6%
CCN1CCN(Cc2ccc(Nc3ncc(F)c(-c4cc(F)c5nc(C)n(C(C)C)c5c4)n3)nc2)CC1.CS(=O)(=O)O,percent Bodipy-positive cells,[3],97.73 ± 0.43%
same,percent Bodipy-positive cells,[1],98 ± 1.1%

# As a short view, part of the list above:
structure (smiles),measurement,setting,value
CCOC(=O)Nc1ccc(NCc2ccc(F)cc2)nc1N [Flupirtine maleate],percent Bodipy-positive cells,[1],43.9% and 52.9%
COCC(=O)Nc1c(I)c(C(=O)NCC(O)CO)c(I)c(C(=O)N(C)CC(O)CO)c1I (stereo not given) [Iopromide],percent Bodipy-positive cells,,7.34 ± 2.2%
"C[C@@]1(O)CCOC(=O)C1 [Mevalonic-D, L acid lactone]",percent Bodipy-positive cells,,8.9 ± 0.58%
"Cn1nc2c3c(cccc31)C(=O)c1ccccc1-2 [JNK Inhibitor, Negative Control]",percent Bodipy-positive cells,[3],14.9 ± 4.2%
C[C@@]1(c2cc(-c3cncnc3)c(F)cc2F)CCSC(N)=N1,percent Bodipy-positive cells,[3],10.1 ± 2.6%
same,percent Bodipy-positive cells,[1],21.5 ± 7.2%
C[C@H]1Oc2cc(cnc2N)-c2c(nn(C)c2C#N)CN(C)C(=O)c2ccc(F)cc21,percent Bodipy-positive cells,[4],6.84 ± 3.3%
same,percent Bodipy-positive cells,[5],6.87 ± 2.3%
same,percent Bodipy-positive cells,[6],4.21 ± 0.93%
same,percent Bodipy-positive cells,[1],5.45 ± 2.3%
Cn1c(=O)c2c(ncn2CCO)n(C)c1=O [Etofylline],percent Bodipy-positive cells,,26.3 ± 6.1%
CCc1cnn2c(NCc3ccc[n+]([O-])c3)cc(N3CCCC[C@H]3CCO)nc12 [Dinaciclib],percent Bodipy-positive cells,[4],39.2 ± 5.8%
same,percent Bodipy-positive cells,[5],38.9 ± 9.2%
same,percent Bodipy-positive cells,[6],44 ± 2.4%
same,percent Bodipy-positive cells,[1],56.8 ± 2%
CCc1cnn2c(NCc3ccc[n+]([O-])c3)cc(N3CCCC[C@H]3CCO)nc12,percent Bodipy-positive cells,[3],55.1 ± 4.6%
same,percent Bodipy-positive cells,[1],62.3 ± 3.4%
O=C1NC(=O)[C@@H](c2cn3c4c(cccc24)CCC3)[C@@H]1c1c[nH]c2ccccc12 [Tivantinib],percent Bodipy-positive cells,[4],15.3 ± 3%
same,percent Bodipy-positive cells,[5],27.5 ± 7.5%
